Assay results as given in PubChem BioAssay AID662 (National Center for Advancing Translational Sciences (NCATS), 2007).
The list shows a part of the results. Shown are side measurements of this screen, not its main read-out; they come without a call. The list favours compounds with an active or inconclusive main result. The note in brackets gives the kind of curve behind each potency; many fits are weak.

Assay: Cell signaling CRE-BLA (Fsk stim)
Details: CHO CRE-bla reporter (cAMP response element driving beta-lactamase), forskolin EC10, beta-lactamase ratio; measured here: 460 nm blue channel
How it was run: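 CRE-bla CHO reporter cells treated with compound titration plus EC10 NKH 477 (water-soluble forskolin), incubated 3 h at 37 °C; CCF4 loading 2 h at room temperature, 460/530 nm emission ratio read, AC50 values derived for positive or negative modulators.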

Compound | AC50
COc1ccc(S(=O)(=O)N2CCCC(C(=O)O)C2)cc1Cl (centres undefined) | 3.98 µM [rising, single point]
O=C(NCc1cccs1)c1ccc(N2CCCCC2)nc1 | 25.1 µM [rising, single point]
C/C=C/Cn1c(SC)nc2c1c(=O)[nH]c(=O)n2C | 10 µM [rising, partial curve]
O=C(c1ccco1)N1CCN(/C(=N/S(=O)(=O)c2cccs2)c2ccccc2Cl)CC1 | 3.98 µM [falling, partial curve]
O=C(O)CCCC(=O)Nc1cccc2cccnc12 | 1 µM [falling, full curve, poor fit]
CC(=O)Nc1c(C(=O)c2ccccc2)oc2ccccc12 | 12.6 µM [rising, single point]
CCOCCOC(=O)C1=C(C)NC2=C(C(=O)CC(c3cccs3)C2)C1c1ccsc1 (centres undefined) | 10 µM [rising, partial curve]
COc1cccc(-c2cncnc2-n2ccnc2)c1 | 7.94 µM [rising, partial curve]
CC(=O)Nc1ccc2nc(C3CCCCC3)[nH]c2c1 | 0.398 µM [falling, single point]
CCc1ccc(-c2nc(CSCC(=O)N3CCN(c4ccccn4)CC3)c(C)o2)cc1 | 6.31 µM [falling, partial curve, poor fit]
Cc1ccc(SCc2[nH]nc3c2C(c2ccco2)C(C#N)=C(N)O3)cc1 (centres undefined) | 12.6 µM [falling, single point]
O=c1oc2c3c4c(cc2c2c1CCC2)OCCN4CCC3 | 10 µM [rising, partial curve]
N#Cc1nc(Cc2cccc3ccccc23)oc1NCC1CCCO1 (centres undefined) | 12.6 µM [rising, single point]
COc1ccccc1CNc1ncnc2ccc(-c3c(C)noc3C)cc12 | 5.01 µM [rising, partial curve]
CCOc1ccccc1C1NC(=O)NC(C)=C1C(=O)OC1CCCCC1 (centres undefined) | 12.6 µM [rising, single point]
c1ccc(Cn2nnnc2C(c2ccncc2)N2CCOCC2)cc1 (centres undefined) | 3.98 µM [rising, single point]
Cn1nc(-c2ccc(N3CCOCC3)c(NC(=O)c3ccccc3)c2)c2ccccc2c1=O | 5.01 µM [rising, partial curve]
COC(=O)c1cccnc1-n1c(=O)c2cccnc2n(Cc2ccc(Cl)cc2)c1=O | 0.01 µM [falling, full curve, poor fit]
COc1cc2c(cc1OC)CN(C(=O)c1cc(S(=O)(=O)N3CCOCC3)ccc1Cl)CC2 | 10 µM [falling, single point]
N#CC1=C(SCC(=O)Nc2cccc3cccnc23)NC(=O)C(C#N)C12CCCCC2 (centres undefined) | 12.6 µM [falling, single point]
NC(=O)NC(=O)CSc1cccc(C(F)(F)F)c1 | 3.98 µM [falling, partial curve]
O=C(O)C1CCN(S(=O)(=O)N2CCOCC2)CC1 | 25.1 µM [rising, single point]
COc1ccc2nc(Nc3nc(C)c(C(C)=O)s3)sc2c1 | 10 µM [rising, partial curve]

Rewritten with each value named: entries from further up.
COc1ccc(S(=O)(=O)N2CCCC(C(=O)O)C2)cc1Cl (centres undefined)
  AC50: 3.98 µM [rising, single point]
NC(=O)NC(=O)CSc1cccc(C(F)(F)F)c1
  AC50: 3.98 µM [falling, partial curve]
O=C(O)C1CCN(S(=O)(=O)N2CCOCC2)CC1
  AC50: 25.1 µM [rising, single point]

Next entries:

Compound | AC50
CS(=O)(=O)c1nc(-c2ccco2)cc(C(F)(F)F)n1 | 0.501 µM [falling, full curve]
CC(C)Cc1nc2oc3c(=O)[nH]cnc3c2c2c1CCC2 | 5.01 µM [falling, full curve]
CCOC(=O)c1cnc(-n2nc(C)cc2C)nc1NCCc1ccccc1 | 3.16 µM [falling, partial curve]
O=C(Nc1ccc2c(c1)OCO2)c1c(Cl)nc2sccn12 | 10 µM [rising, single point]
CC1(C)C(c2ccccc2)=NC(c2ccc(F)cc2)N1O (centres undefined) | 0.158 µM [falling, full curve]
Cc1nn(-c2nc3ccccc3[nH]2)c(N)c1-c1ccccc1 | 10 µM [falling, partial curve]
CCc1cc(=O)oc2cc(C)cc(OCc3nn[nH]n3)c12 | 25.1 µM [rising, single point]
CC(=O)NC(=O)NC1OC(=O)C(Cl)=C1Cl (centres undefined) | 25.1 µM [falling, single point]
Nc1nnnn1/N=C/c1ccccc1OCc1ccc(Cl)cc1Cl | 3.98 µM [rising, full curve]
c1cc(Nc2ncnc3sccc23)cc(-c2nnc3n2CCCCC3)c1 | 6.31 µM [rising, partial curve]
O=C(CN1CCCN(S(=O)(=O)c2ccc(F)cc2)CC1)Nc1ccccc1Br | 12.6 µM [rising, single point]
CCc1nc(C)cn1S(=O)(=O)c1cc(Br)c(C)cc1OC | 10 µM [rising, partial curve]
CC(=O)Nc1ccc(S(=O)(=O)N2CCN(c3cc(C)ccc3C)CC2)cc1 | 31.6 µM [falling, single point]
COc1ccc(NC(=O)CNc2cccc(C#N)c2)cc1Cl | 3.98 µM [falling, single point]
C(=C\c1ccccc1)/CSc1nnc(-c2cnccn2)n1Cc1ccco1 | 0.00398 µM [falling, full curve, poor fit]
CC(C)N(C(=O)CSc1nc2c([nH]1)c(=O)n(C)c(=O)n2C)c1ccccc1 | 10 µM [rising, partial curve]
Oc1ccc(C=Nc2ccc(N3CCOCC3)cc2)c(O)c1 | 25.1 µM [falling, single point]
COC(=O)c1ccc(CSc2nc3c(cnn3-c3ccccc3)c(=O)[nH]2)o1 | 1 µM [rising, full curve]
COC(=O)c1c(NC(=O)COC(=O)Cn2cnc3ccccc32)sc(C)c1C | 25.1 µM [rising, single point]
Cc1[nH]n(-c2ccccc2)c(=O)c1S(=O)(=O)c1ccccc1 | 10 µM [falling, partial curve]
CCOC(=O)c1c(C)[nH]c(C)c1C(=O)CSc1nnc(-c2cc(OC)c(OC)c(OC)c2)o1 | 0.2 µM [rising, full curve, poor fit]
C=CCNC(=O)NC(=O)COC(=O)CCCSc1nc2ccccc2[nH]1 | 3.98 µM [falling, single point]
COc1ccc(OC)c(-c2cc(C(=O)NCCCn3ccnc3)no2)c1 | 12.6 µM [rising, single point]

Compound | AC50
O=C1NC(=O)C(c2ccccc2[N+](=O)[O-])=C1Nc1ccc(O)c(Cl)c1 | 25.1 µM [falling, partial curve, poor fit]
Cc1ccc(Cn2nnc3c(=O)[nH]c(C4CCCN(C(=O)Nc5ccc(F)cc5)C4)nc32)cc1 (centres undefined) | 12.6 µM [rising, partial curve]
Cc1nc2cnc(N(C)C)nc2n(-c2ccccc2)c1=O | 15.8 µM [rising, partial curve]
Cc1ccc2c(c1)-c1c(cnn1CC(=O)Nc1ccccc1N1CCN(C)CC1)CO2 | 10 µM [rising, partial curve]
CC(NC(=O)c1cc2ccccc2o1)C(=O)O (centres undefined) | 0.316 µM [falling, partial curve]
CCOC(=O)c1cc(C(=O)OCC)c2cc(Br)ccc2n1 | 15.8 µM [rising, single point]
Cc1ccc2c(CSc3nnc(C4CC4)n3N)cc(=O)oc2c1C | 10 µM [rising, partial curve]
CCN(CC)c1ccc2cc(-c3nc4ccccc4n3C)c(=O)oc2c1 | 1.58 µM [rising, partial curve]
O=c1c2ccccc2nc(SCc2nnc(-c3ccccc3Br)o2)n1-c1ccccc1 | 2.51 µM [rising, partial curve]
COc1ncc2nc(-c3cn(C)c4ccccc34)c(=O)n(-c3ccccc3)c2n1 | 12.6 µM [rising, partial curve]
CCC1C(C#N)=C(SC)NC2=C1C(=O)CC(C)(C)C2 (centres undefined) | 1 µM [falling, partial curve]
COc1ccc(OC)c(NC(=O)c2cc(S(=O)(=O)NCc3ccco3)ccc2F)c1 | 10 µM [rising, partial curve]
Cn1c(=O)c2c(-c3ccccc3)n(CCCN3CCOCC3)cc2n(C)c1=O | 12.6 µM [rising, single point]
Clc1ccc(CCNc2ncnc3nc[nH]c23)cc1 | 10 µM [rising, partial curve]
COc1ccccc1-c1cn[nH]c(=S)n1 | 15.8 µM [rising, single point]
c1ccc(-c2nnc3sc(-c4csc5c4CCCC5)nn23)cc1 | 10 µM [rising, partial curve]
COc1ccc(Cc2noc(-c3ccc(OC)c(OC)c3)n2)cc1OC | 12.6 µM [rising, partial curve]
CN1Cc2sc(N)c(C#N)c2CC1(C)C | 10 µM [rising, partial curve]
CN(Cc1ccccc1)c1oc(-c2ccco2)nc1C#N | 10 µM [rising, partial curve]
COc1ccc(-c2cc(C(F)(F)F)nc(S(=O)(=O)CCC(=O)N3CCOCC3)n2)cc1 | 7.94 µM [falling, partial curve]
N#CCCn1cc(/C=N/O)c(-c2ccc(-c3ccccc3)cc2)n1 | 12.6 µM [rising, partial curve]
COc1cc(CO)cc(Br)c1OCc1cccnc1 | 12.6 µM [rising, partial curve]
CCc1nc(C)cn1S(=O)(=O)c1cc(C)c(OC)cc1C | 12.6 µM [rising, partial curve]

In a second layout: entries from further up
O=C(NCc1cccs1)c1ccc(N2CCCCC2)nc1
  AC50: 25.1 µM [rising, single point]
C/C=C/Cn1c(SC)nc2c1c(=O)[nH]c(=O)n2C
  AC50: 10 µM [rising, partial curve]
